# Measurements taken from patent US20240352013A1, “BICYCLIC FUSED PYRAZOLE DERIVATIVES FOR THE TREATMENT OF RESPIRATORY INFECTIONS INCLUDING RSV” (GEORGIA STATE UNIVERSITY RESEARCH FOUNDATION, INC., priority 2021, published 2024).
# Chains of the proteins cited; added tags and fusions are not shown. Lines headed by an entry give the natural chain unless they say otherwise; changes in a name come on top.
# UniProt P28887: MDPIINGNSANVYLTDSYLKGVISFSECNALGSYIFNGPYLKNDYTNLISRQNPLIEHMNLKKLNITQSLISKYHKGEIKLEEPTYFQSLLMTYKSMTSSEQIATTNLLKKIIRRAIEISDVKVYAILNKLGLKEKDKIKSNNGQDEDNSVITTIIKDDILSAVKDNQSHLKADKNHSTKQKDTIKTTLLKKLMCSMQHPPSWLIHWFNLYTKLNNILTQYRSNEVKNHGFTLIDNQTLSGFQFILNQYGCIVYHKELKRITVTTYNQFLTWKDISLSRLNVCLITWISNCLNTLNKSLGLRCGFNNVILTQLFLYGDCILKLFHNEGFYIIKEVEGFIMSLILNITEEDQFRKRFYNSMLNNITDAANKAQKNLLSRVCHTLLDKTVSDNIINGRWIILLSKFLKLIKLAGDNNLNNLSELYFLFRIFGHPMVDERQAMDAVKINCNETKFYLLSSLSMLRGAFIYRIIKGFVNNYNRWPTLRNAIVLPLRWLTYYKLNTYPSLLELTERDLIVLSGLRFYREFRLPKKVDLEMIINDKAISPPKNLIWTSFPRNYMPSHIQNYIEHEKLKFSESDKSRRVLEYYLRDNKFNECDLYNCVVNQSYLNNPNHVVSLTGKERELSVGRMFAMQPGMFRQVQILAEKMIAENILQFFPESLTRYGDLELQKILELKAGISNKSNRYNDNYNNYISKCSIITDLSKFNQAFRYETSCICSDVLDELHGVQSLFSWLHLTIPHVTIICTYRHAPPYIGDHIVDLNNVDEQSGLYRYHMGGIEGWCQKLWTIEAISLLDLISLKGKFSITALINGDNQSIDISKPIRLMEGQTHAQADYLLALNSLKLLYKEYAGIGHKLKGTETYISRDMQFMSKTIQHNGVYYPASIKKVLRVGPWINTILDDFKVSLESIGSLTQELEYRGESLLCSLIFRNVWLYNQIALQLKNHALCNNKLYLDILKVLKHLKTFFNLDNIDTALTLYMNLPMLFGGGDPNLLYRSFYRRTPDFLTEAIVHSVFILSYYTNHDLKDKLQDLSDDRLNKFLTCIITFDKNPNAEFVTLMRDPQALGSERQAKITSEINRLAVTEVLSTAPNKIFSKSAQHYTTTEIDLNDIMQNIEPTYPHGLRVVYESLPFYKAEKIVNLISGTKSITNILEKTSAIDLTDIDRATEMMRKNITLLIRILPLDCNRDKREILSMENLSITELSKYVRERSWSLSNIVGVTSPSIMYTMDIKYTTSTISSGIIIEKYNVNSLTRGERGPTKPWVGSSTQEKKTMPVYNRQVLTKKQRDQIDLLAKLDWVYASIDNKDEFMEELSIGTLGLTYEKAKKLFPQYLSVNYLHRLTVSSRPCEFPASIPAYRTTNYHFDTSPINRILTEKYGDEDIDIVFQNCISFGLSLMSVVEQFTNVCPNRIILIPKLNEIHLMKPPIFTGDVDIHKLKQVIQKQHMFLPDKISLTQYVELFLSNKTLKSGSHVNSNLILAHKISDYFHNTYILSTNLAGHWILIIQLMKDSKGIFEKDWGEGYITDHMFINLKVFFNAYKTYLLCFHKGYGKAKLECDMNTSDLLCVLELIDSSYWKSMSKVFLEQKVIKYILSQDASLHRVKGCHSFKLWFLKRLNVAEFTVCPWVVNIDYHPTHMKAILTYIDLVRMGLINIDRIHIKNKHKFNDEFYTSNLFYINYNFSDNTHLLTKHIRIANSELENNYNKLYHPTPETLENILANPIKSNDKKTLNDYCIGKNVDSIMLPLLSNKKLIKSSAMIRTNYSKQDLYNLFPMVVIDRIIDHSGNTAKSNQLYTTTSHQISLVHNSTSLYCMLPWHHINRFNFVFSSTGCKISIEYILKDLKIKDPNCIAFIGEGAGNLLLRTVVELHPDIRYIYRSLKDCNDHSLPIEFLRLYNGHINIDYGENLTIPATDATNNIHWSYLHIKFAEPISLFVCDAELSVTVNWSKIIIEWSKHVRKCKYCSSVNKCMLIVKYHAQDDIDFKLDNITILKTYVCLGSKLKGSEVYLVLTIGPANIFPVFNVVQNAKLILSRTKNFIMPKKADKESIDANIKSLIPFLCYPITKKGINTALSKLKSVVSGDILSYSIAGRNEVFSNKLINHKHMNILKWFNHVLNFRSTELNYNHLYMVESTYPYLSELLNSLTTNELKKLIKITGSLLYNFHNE
# For at least one compound, name, drawing or mass did not settle the structure.
# Experiments:
# RSV L in complex with P = target: T1, RSV L in complex with P (Human respiratory syncytial virus A, UniProt P28887); assay: In vitro RdRP primer extension (3′ extension) assay, full-length L; assay type: biochemical; details: primer/template RNA elongation
# T1 construct: Using baculovirus/insect cell protein expression, we prepared full-length L; made in house; host or cells: Sf9 insect cells, recombinant baculovirus (pFastBac dual)
# RSV = assay: Immunostaining of RSV N in RSV-infected 3D-HAE; assay type: cell-based; details: basolateral 5 μM, 3 d.p.i.
smiles,measurement,setting,value
COc1ccc(Cn2c3cc(=O)n(Cc4cccc(Cl)n4)c(C)c3c(=O)n2-c2ccccn2)cc1 [AVG-233],arrest of polymerization,RSV L in complex with P,predominantly after incorporation of four nucleotides
same,RSV protein expression,RSV,strongly reduced
